Test results published in PubChem BioAssay AID1671190 (National Center for Advancing Translational Sciences (NCATS), 2021).
Where “and” joins values, the source holds several entries; their conditions need not be identical. Equal values may be shown once. Screen size: about 580,000 compounds; about 6,100 (1.1%) were called active. The inconclusive results got no clear call from the source; some entries with a clear call stand among them for comparison. Calls follow the shape of the dose curve; as a rule, active = well fitted inhibition curve with a large enough effect; inconclusive = small, poorly fitted or top-dose-only effect, or another doubt; inactive = no such curve, though single readings can be large or run the other way. A potency beside an inconclusive call is a rough fit, not a confirmed value.

Amino acid sequences for entries named in this document (tags omitted).
UniProt P18054, whole entry, looked up: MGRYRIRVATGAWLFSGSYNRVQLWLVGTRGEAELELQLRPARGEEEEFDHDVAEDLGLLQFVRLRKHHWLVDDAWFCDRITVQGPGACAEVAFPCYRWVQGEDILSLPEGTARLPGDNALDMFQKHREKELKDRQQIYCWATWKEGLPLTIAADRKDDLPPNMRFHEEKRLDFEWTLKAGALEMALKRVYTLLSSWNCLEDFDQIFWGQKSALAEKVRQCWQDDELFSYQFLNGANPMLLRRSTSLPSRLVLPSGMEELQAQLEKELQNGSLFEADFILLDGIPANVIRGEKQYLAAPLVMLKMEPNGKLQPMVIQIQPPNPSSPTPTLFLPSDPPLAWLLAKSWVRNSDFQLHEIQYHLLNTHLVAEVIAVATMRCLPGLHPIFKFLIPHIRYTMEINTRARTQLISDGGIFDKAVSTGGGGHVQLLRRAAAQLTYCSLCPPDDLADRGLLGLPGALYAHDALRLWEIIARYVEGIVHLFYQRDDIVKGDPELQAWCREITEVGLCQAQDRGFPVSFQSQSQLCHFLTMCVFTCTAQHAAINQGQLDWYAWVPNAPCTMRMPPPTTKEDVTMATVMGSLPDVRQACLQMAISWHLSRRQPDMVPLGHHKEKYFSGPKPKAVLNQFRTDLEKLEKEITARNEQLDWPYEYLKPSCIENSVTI

Target: Polyunsaturated fatty acid lipoxygenase ALOX12 (Homo sapiens) (UniProt P18054)
Experiment: Primary qHTS assay for inhibitors of human arachidonate 12S-lipoxygenase (ALOX12): Round 2
Conditions: purified 12hLO, xylenol orange hydroperoxide absorbance; activity change, negative = inhibition: at 108 µM (top of the series) unless noted
In short: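 Hydroperoxide product was detected by ferrous iron/xylenol orange as the 573 to 405 nm absorbance ratio. Arachidonic acid at 40 uM (final) was turned over for 30 min at room temperature by 150 nM human 12hLO, pH 7.0 Hepes buffer, after 15 min compound preincubation.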
% is scaled to controls: 0 for no effect and ±100 for the full control effect; potency is read from the fitted curve at half-maximal effect.

Row | SMILES | activity change, negative = inhibition | Potency
1 | CC1CCN(C(=O)CCc2nnc3ccc(N4CCC5(CC4)OCCO5)nn23)CC1 | inactive: -7.44% | –
2 | O=C(CSc1ccc([N+](=O)[O-])cn1)Nc1ccc2c(c1)OCCO2 | – | inconclusive: 39.8 µM [inhibitor, partial curve, poor fit]
3 | NC(=O)CCn1c(C(=O)c2cccc([N+](=O)[O-])c2)c2ccccc2[n+]1[O-] | inconclusive: -43.5% [inhibitor] | –
4 | CC(C)C(NC(=O)c1ccc(Cl)cc1)C(=O)NC1=NCCS1 (stereo not drawn) | – | inconclusive: 50.1 µM [inhibitor, partial curve, poor fit]
5 | Cc1ccccc1NC(=O)/C(C#N)=C\c1ccsc1 | inactive: -8.13% | –
6 | Fc1ccc(CN2CC[C@H](c3nc4ccc(C(F)(F)F)cc4[nH]3)C2)cc1F | – | inconclusive: 70.8 µM [inhibitor, partial curve, poor fit]
7 | Cc1oc(-c2nc(C#N)c(N3CCN(C)CC3)o2)cc1S(=O)(=O)N(C)C | inactive: 4.46% | –
8 | O=C(c1ccccc1)N1CCc2nc(C3CC3)nc(-c3ccc(Cl)cc3)c2CC1 | – | inconclusive: 17.8 µM [inhibitor, full curve]
9 | COCCNC(=S)Nc1ccc([N+](=O)[O-])cc1C | – | inconclusive: 31.6 µM [inhibitor, partial curve, poor fit]
10 | Cc1ccc(C(=O)CSc2nnc(-c3ccco3)n2Cc2ccccc2)cc1 | inactive: 0% | –
11 | CCc1csc(Cn2cc(-c3cncnc3)nn2)n1 | inactive: -3.4% | –
12 | COCc1nnc(NS(=O)(=O)c2ccccc2)s1 | – | inconclusive: 31.6 µM [inhibitor, partial curve] and inconclusive: 89.1 µM [inhibitor, partial curve, poor fit]
13 | O=C1c2cc(N3CCOCC3)nc(-c3ccc(F)cc3)c2CN1CC1CC1 | – | active: 31.6 µM
14 | COc1nc2ccccc2cc1-c1noc(-c2ccncc2)n1 | inactive: -11.7% | –
15 | CC(C)(C)n1nnnc1C(C1CC1)N1C(=O)C(=O)c2ccccc21 (stereo not drawn) | inactive: 10.2% | –
16 | CCc1cccc(CC)c1NC(=S)NCCc1c(C)[nH]c2ccc(C)cc12 | – | inconclusive: 44.7 µM [inhibitor, partial curve, poor fit]
17 | COc1ccccc1C(=O)NC(=O)COC(=O)c1nccnc1N | – | inconclusive: 8.91 µM [inhibitor, full curve]
18 | O=C(Cn1c(NCc2ccccc2)nc2ccccc21)N1CCCC1 | inactive: -3.27% | –
19 | O=C(CN1C(=O)NC(c2ccc(Cl)cc2)C2=C1COC2=O)Nc1ccccc1 (stereo not drawn) | – | inconclusive: 15.8 µM [inhibitor, full curve]
20 | CCNC(=O)N1Cc2[nH]cnc2C[C@H]1c1nc(-c2ccc(OC(F)(F)F)cc2)no1 | – | inconclusive: 15.8 µM [inhibitor, full curve]
21 | CCOC(=O)c1ccc(NC(=S)NCCc2ccc(F)cc2)cc1 | – | inconclusive: 31.6 µM [inhibitor, partial curve, poor fit]
22 | CCCCc1c(C)nc2cc(-c3ccco3)[nH]n2c1=O | – | inconclusive: 100 µM [inhibitor, single point]
23 | Cc1ccc(C2c3[nH]c4ccccc4c3CCN2C(=O)CSCc2ccc(F)cc2)cc1 (stereo not drawn) | inactive: -0.692% | –

Compounds 11–13 of the list above:
Row | SMILES | activity change, negative = inhibition | Potency
11 | CCc1csc(Cn2cc(-c3cncnc3)nn2)n1 | inactive: -3.4% | –
12 | COCc1nnc(NS(=O)(=O)c2ccccc2)s1 | – | inconclusive: 31.6 µM [inhibitor, partial curve] and inconclusive: 89.1 µM [inhibitor, partial curve, poor fit]
13 | O=C1c2cc(N3CCOCC3)nc(-c3ccc(F)cc3)c2CN1CC1CC1 | – | active: 31.6 µM

Additional entries:

Row | SMILES | activity change, negative = inhibition | Potency
24 | Cc1nn(-c2ccc(F)cc2)c2sc(C(=O)OCC(=O)Nc3ccccc3OC(F)F)cc12 | inactive: -28.7% | –
25 | O=C(Nc1ccc2nc(-c3ccco3)[nH]c2c1)c1cccs1 | inactive: 0% | –
26 | CCOC(=O)C1CCCN(Cc2c(F)cccc2Cl)C1 (stereo not drawn) | – | inconclusive: 2.24 µM [inhibitor, full curve, poor fit]
27 | CCc1nc2c(OCc3ccc(C#N)cc3)cccn2c1N(C)C(=O)c1ccco1 | – | inconclusive: 50.1 µM [inhibitor, partial curve, poor fit]
28 | O=C1NC[C@H](c2ccccc2)N(CCc2cccc(F)c2)C1=O | – | inconclusive: 50.1 µM [inhibitor, partial curve, poor fit]
29 | CC(Sc1nc(-c2ccccc2)c(-c2ccccc2)o1)C(=O)N1CCCC1 (stereo not drawn) | – | inconclusive: 79.4 µM [inhibitor, partial curve, poor fit]
30 | OCc1cccc(-c2ccc3ncc(Nc4cccnc4)n3n2)c1 | – | inconclusive: 25.1 µM [inhibitor, full curve]
31 | Cc1cc(C)c2nc(N3C(=O)C(O)=C(C(=O)c4ccco4)C3c3cccc(O)c3)sc2c1 (stereo not drawn) | – | active: 31.6 µM and active: 25.1 µM
32 | O=C(COc1ccccc1)N1C[C@@H]2C[C@H](C1)c1c(NS(=O)(=O)c3ccccc3)ccc(=O)n1C2 | – | inconclusive: 28.2 µM [inhibitor, full curve]
33 | CN1C[C@@H](NC(=O)c2cccs2)C[C@H]1c1nc(-c2ccc(F)cc2)no1 | inactive: -0.16% [at 176 µM] | –
34 | COc1ccccc1CN1CC(C(=O)NCc2ccc(SC)cc2)CCC1=O (stereo not drawn) | inactive: 7.57% | –
35 | O=S(=O)(Nc1ccc(Br)cc1)c1cccc(NC(=S)NCCN2CCOCC2)c1 | – | inconclusive: 50.1 µM [inhibitor, partial curve, poor fit]
36 | c1ccc(-c2nn3c(Cn4cnc5ccccc54)nnc3s2)cc1 | – | inconclusive: 31.6 µM [inhibitor, partial curve, poor fit]
37 | CCn1cnc2c1c(=O)n(CC(=O)NC(C)c1ccco1)c(=O)n2Cc1ccccc1 (stereo not drawn) | – | inconclusive: 11.2 µM [inhibitor, full curve, poor fit]
38 | O=C1[C@@H]2C[C@@H](CN2C(=O)c2cccnc2)Oc2ccccc2N1Cc1ccc(OC(F)(F)F)cc1 | inactive: 15.1% | –
39 | COCc1ccc(O)c2ncccc12 | inactive: 23.4% | –
40 | CCc1cccc(C)c1NC(=O)c1cnn(-c2ccc(OC)cc2)c1C1CCN(C(=O)OC(C)(C)C)CC1 | inactive: -31.3% | –
41 | Cc1cc(C(=O)NCC2CC2)c2c(C3CCNC3)noc2n1 (stereo not drawn) | – | inconclusive: 25.1 µM [inhibitor, partial curve, poor fit]
42 | COc1ccc(/C=C2\SC(=S)N(CC(=O)OCC(=O)Nc3ccc([N+](=O)[O-])cc3OC)C2=O)cc1 | – | inconclusive: 35.5 µM [inhibitor, partial curve, poor fit]
43 | S=c1nc(C23CC4CC(CC(C4)C2)C3)[nH][nH]1 | – | inconclusive: 35.5 µM [inhibitor, partial curve, poor fit]
44 | FC(F)(F)c1cccc(N2CCN(C(=S)NC3CCCCC3)CC2)c1 | – | active: 50.1 µM
45 | Cc1cc(NC(=O)CCCC(=O)Nc2ccc(F)cc2)no1 | inactive: 0% | –
46 | Fc1ccccc1N1CCN(C2CCCN(Cc3ccccc3C(F)(F)F)C2)CC1 (stereo not drawn) | – | inconclusive: 44.7 µM [inhibitor, partial curve, poor fit]

Row | SMILES | activity change, negative = inhibition | Potency
47 | O=C1OCC2=C1C(c1ccc(F)cc1)Sc1ccccc1N2 (stereo not drawn) | inactive: -32.2% [at 57.4 µM] | –
48 | COCC(C)NC(=O)CSc1nc(-c2ccccc2)c(-c2ccccc2)o1 (stereo not drawn) | – | inconclusive: 14.1 µM [inhibitor, full curve, poor fit]
49 | COc1ccc(N2CCN(S(=O)(=O)c3ccc(Br)s3)CC2)cc1 | – | inconclusive: 50.1 µM [inhibitor, partial curve, poor fit]
50 | Nc1nc(Sc2ccc([N+](=O)[O-])c3nonc23)c2[nH]cnc2n1 | – | active: 31.6 µM
51 | O=C1[C@@H]2C[C@@H](CN2C(=O)c2ccccn2)Oc2ccccc2N1Cc1ccc(OC(F)(F)F)cc1 | – | inconclusive: 20 µM [inhibitor, full curve]
52 | CCOc1ccc(CNC(=S)N/N=C\c2ccc([N+](=O)[O-])cc2)cc1 | – | inconclusive: 3.98 µM [inhibitor, full curve, poor fit]
53 | COCCNC(=O)c1cc(-c2cccs2)on1 | inactive: 3.99% | –
54 | Cc1ccc(OCC(=O)N(C)CC(=O)NCc2ccco2)c(Br)c1 | – | inconclusive: 56.2 µM [inhibitor, partial curve, poor fit]
55 | COc1ccc(-c2nn(C)c(=O)c3ccccc23)cc1NC(=O)c1ccc(Cl)cc1 | – | inconclusive: 112 µM [inhibitor, single point]
56 | Cc1cccc(-c2nc3cnccn3c2NCCC(=O)N(C)C)c1 | – | inconclusive: 50.1 µM [inhibitor, partial curve]
57 | O=C(O)CN1C(=O)C(=O)N(Cc2ccc(Cl)c(Cl)c2)C1=O | – | inconclusive: 44.7 µM [inhibitor, partial curve, poor fit]
58 | Cc1cc2c(c(=O)n1CCc1ccccc1)C(c1ccco1)C(C#N)=C(N)O2 (stereo not drawn) | inactive: 0% | –
59 | Cc1c(CC(=O)N2CCN(c3ccccc3)CC2)c(=O)oc2c(C)c(O)ccc12 | inactive: 4.14% | –
60 | Cc1cccc(C)c1NC(=O)c1cccc(N(C)C)c1 | – | inconclusive: 12.6 µM [inhibitor, partial curve, poor fit]
61 | CC(C)C(=O)N1N=C(c2ccccc2NS(C)(=O)=O)CC1c1ccco1 (stereo not drawn) | inactive: -14.1% | –
62 | CC(C)C[C@H]1CN(CCCC[C@H]2CNC(=O)C(=O)N2CCc2ccc(O)cc2)C(=O)C(=O)N1CCc1ccccc1 | – | inconclusive: 50.1 µM [inhibitor, partial curve, poor fit]
63 | CCOc1ccc(Oc2ccc(NC(=O)C3=NN(C4CCS(=O)(=O)C4)C(=O)CC3)cc2)cc1 (stereo not drawn) | inactive: 7.14% | –
64 | O=C(Cc1ccsc1)N1CCC(c2n[nH]c(=O)n2Cc2ccc(F)cc2)CC1 | – | inconclusive: 20 µM [inhibitor, full curve]
65 | Cc1cccc(C)c1NC(=S)N(CCN(C)C)Cc1cccs1 | – | inconclusive: 8.91 µM [inhibitor, full curve, poor fit]
66 | Cc1cc(C(=O)OCC(=O)Nc2ccccc2F)c2ccccc2n1 | inactive: 2.27% | –
67 | COc1ccc(C=NNC(=S)NC23CC4CC(CC(C4)C2)C3)cc1OC | – | active: 44.7 µM
68 | COc1ccc(/C=N/NC(=O)CN2CCCCCCC2)c(C)c1C | – | inconclusive: 0.398 µM [inhibitor, full curve, poor fit]
